In PMC8488606:
These are yes or no findings as the source states them, for the method shown. In cells and extracts the contact can be indirect. Here binding means that the protein was enriched with, or labelled near, the bait; the list need not be complete.

Target: GFP-tagged AfRom2 CNH domain expressed in A. fumigatus (gpd-gfp-rom2 (2725-3792)) (Aspergillus fumigatus) (UniProt Q4WUI2)
Assay: affinity purification with mass spectrometry; GFP-Trap resin with lysate of the A. fumigatus strain expressing gpd-gfp-cnh, gpd-gfp strain as control; washes with 350 mM NaCl; eluted proteins analysed by LC-MS

binding: binds
B1: actin-related protein 4 (endogenous, A. fumigatus) (protein, UniProt Q4WHA3 1-466)
chain: MLIAICVQDEISAIVLDPGFSTTRAGFAGEDTPKSVIPTYYGKYTYEAQEKLIFGDDIFVTPRPGLSIHNPMGRDGVVEDWDMAEKVWEYSFTSRLTGPKAGNPFQNGLNDVANGELPSEMEGVETEEKPLADSPLLMTECGWNPTKAREKTVEIAMEKWGTPAFYLARNGVLAAFAAGKASALVVDVGASNISVTPVHDGMILKRGVQHSPLGGDYISSQLRALFKTNSPQPITITPHYLVASKTAVDAGQPAQAKYKTFPPDKAPDASYRTLMEERTLSEFKECVVQVWPGPNKLSATGPNGVSNEEVAKSSPGRPFEFPDGYNQVFGIDRYRVVESLFDAKAAIPDPESVFPAPTQAQTVPELIKAALNGVDVDVRPHLLANVVVTGASSLLYGFTDRLNQELMQSYPGPRVRISASGNTAERKFGSWVGGSILASLGTFHQMWISKKEYDEHGPNIVEKRCK
